Assay results taken from US20240294593A1.
These are yes or no findings as the source states them, for the method shown. Some entries that bind do so weakly or less than the wild type.

Amino acid sequences for entries named in this document (tags omitted). Residues count along the entry.
UniProt Q15116, residues 25-167: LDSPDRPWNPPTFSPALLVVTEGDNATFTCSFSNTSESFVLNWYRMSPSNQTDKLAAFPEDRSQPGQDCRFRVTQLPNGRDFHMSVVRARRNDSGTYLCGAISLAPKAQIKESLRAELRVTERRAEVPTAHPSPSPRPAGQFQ

Key:
human PD-1-His (human) [1] = target: human PD-1-His (human) (UniProt Q15116); assay: Octet (BLI); antibody captured on AHC biosensors, dipped into multiple concentrations of PD-1-His
human PD-1-His (human) [2] = target: human PD-1-His (human) (UniProt Q15116); assay: Octet (Example 7A)
human PD-1-His (human) [3] = target: human PD-1-His (human) (UniProt Q15116); assay: Octet; legend of FIG. 66
human PD-1-His (human) [4] = target: human PD-1-His (human) (UniProt Q15116); assay: Octet

Row | binding (human PD-1-His (human) [1]) | binding (human PD-1-His (human) [2]) | binding (human PD-1-His (human) [3]) | binding (human PD-1-His (human) [4]) | Binder
1 | binds | binds |  |  | XENP28519 (humanized mAb A, bivalent mAb) (antibody, human IgG1, kappa, V domains shown) VH: QVQLQESGPGLVKPSQTLSLTCTVSGHSITSDYAWNWIRQPPGKKLEWIGYISYSGYTTYNPSLKSRVTISRDTSKNQFSLKLSSVTAADTAVYFCARDLDYGPWFAYWGQGTLVTVSS VL: DIQMTQSPSSLSASVGDRVTITCRASENIHNYLAWYQQKPGKSPKLLVYNVKTLADGVPSRFSGSGSGTDYTLTISSLQPEDFATYYCQHFWSSPWTFGGGTKVEIKR
2 |  |  | binds | binds | mAb C H1.132_L1 (antibody, V domains shown) VH: EVQLVESGGGLVQPGGSLRLSCAASGFTFSSFGMHWVRQAPGKGLEWVSYISSGSSIIYYADSVKGRFTISRDNAKNSLYLQMNSLRAEDTAVYYCARGGWLVWSPDYWGQGTLVTVSS VL: DIVMTQSPDSLAVSLGERATINCKSSQSLLNSGNQKNYLTWYQQKPGQPPKLLIYWASTRESGVPDRFTGSGSGTDFTLTISSLQAEDVAVYYCQNDYSYPFTFGSGTKLEIKR
